No constants are given. Whether binding was seen depends on the method and setting. For part of these data: Binding seen in cells or lysates may run through a third protein. Some entries that bind do so weakly or less than the wild type. For part of these data: Tags and fused reporters may be left off the sequences shown.
Legend:
TAP-tagged cGAS = TAP-tagged cGAS (UniProt Q8N884); assay: pull-down; HEK293T transfected with HA-p65 and TAP-tagged bait; lysis in IP buffer; Streptavidin beads 16 h at 4°C, 3 washes, elution in Laemmli buffer; immunoblot against tags
[1] = target: T1, TAP-tagged full-length SPSB1 (human) (UniProt Q96BD6); assay: as above
T1 sequence: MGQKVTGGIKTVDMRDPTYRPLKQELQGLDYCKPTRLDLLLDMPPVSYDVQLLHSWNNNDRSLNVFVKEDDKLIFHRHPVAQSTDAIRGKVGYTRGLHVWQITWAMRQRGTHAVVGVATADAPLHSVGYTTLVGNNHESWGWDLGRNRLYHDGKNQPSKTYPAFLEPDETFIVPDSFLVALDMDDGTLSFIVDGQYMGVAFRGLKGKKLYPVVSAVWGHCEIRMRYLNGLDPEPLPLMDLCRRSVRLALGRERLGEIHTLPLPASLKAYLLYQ

Amino acid sequences for entries named in this document (tags omitted).
UniProt Q8N884: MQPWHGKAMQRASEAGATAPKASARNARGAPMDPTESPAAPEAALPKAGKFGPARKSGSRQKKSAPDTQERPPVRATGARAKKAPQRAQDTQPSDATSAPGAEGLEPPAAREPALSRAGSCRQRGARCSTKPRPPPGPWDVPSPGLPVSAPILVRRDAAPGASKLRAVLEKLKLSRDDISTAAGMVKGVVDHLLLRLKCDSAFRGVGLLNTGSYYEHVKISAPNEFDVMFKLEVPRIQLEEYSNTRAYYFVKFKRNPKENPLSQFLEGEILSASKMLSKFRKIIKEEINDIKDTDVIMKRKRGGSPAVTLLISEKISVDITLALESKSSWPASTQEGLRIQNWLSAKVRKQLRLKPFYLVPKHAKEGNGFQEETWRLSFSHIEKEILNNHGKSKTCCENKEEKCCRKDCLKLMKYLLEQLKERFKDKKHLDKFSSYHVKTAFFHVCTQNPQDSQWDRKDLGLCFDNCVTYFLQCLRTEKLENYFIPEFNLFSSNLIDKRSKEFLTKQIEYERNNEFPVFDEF
UniProt Q04206: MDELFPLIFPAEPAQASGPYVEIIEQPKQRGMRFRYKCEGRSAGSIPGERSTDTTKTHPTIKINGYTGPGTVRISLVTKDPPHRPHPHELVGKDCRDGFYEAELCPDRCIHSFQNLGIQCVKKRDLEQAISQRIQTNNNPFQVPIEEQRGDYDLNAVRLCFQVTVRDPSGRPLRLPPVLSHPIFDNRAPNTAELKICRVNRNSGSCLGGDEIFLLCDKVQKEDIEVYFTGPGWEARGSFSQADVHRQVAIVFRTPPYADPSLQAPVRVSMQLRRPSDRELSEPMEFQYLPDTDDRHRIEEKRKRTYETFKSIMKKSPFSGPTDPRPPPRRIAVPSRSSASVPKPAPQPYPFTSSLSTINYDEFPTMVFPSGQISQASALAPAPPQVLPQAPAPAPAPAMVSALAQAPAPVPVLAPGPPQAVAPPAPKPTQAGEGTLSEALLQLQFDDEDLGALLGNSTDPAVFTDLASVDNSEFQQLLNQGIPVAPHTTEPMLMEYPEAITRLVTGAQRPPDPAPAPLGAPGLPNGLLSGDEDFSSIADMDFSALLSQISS
UniProt Q9Y6K9: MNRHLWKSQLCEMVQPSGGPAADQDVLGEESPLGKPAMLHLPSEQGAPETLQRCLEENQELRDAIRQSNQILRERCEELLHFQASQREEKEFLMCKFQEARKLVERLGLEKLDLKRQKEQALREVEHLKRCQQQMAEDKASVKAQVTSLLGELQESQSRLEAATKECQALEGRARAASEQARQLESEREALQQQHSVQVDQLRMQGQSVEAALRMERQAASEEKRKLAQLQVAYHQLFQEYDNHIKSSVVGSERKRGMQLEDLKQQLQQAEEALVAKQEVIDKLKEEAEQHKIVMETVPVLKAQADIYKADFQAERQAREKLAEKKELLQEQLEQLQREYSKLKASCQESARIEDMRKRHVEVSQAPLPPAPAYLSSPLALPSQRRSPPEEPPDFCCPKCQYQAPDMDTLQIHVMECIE
UniProt Q9UKB1: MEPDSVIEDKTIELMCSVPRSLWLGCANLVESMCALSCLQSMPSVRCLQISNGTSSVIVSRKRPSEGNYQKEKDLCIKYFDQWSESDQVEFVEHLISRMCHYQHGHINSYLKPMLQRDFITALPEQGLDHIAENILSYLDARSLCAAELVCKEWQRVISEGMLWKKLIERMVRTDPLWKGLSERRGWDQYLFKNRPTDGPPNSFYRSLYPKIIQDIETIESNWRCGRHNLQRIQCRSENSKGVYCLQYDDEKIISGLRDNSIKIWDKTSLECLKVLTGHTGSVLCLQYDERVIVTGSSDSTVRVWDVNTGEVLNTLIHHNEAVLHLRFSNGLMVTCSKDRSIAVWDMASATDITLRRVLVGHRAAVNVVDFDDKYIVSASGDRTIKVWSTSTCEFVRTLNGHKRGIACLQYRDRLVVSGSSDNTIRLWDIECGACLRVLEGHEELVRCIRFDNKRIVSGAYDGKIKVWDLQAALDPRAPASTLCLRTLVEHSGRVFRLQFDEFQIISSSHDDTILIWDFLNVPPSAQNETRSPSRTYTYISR

[2] = target: T2, TAP-tagged SPSB1-ΔSOCS (human) (UniProt Q96BD6); assay: as above
T2 sequence: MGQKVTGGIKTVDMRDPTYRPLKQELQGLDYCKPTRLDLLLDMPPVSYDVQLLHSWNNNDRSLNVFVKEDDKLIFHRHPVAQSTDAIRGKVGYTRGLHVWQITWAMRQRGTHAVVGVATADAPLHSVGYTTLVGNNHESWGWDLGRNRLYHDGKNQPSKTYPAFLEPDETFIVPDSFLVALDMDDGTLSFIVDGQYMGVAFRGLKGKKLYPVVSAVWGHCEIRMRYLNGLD

[3] = target: T3, FLAG-SPSB1 (SPRY and SOCS-box containing protein 1) (human) (UniProt Q96BD6); assay: LUMIER (luminescence-based mammalian interactome mapping); HEK293T co-transfected with FLAG-SPSB1 and Rluc fusions for 24 h; lysis in IP buffer (20 mM Tris-HCl pH7.4, 150 mM NaCl, 10 mM CaCl2, 0.1% Triton-X, 10% glycerol); affinity purification with streptavidin beads 6 h at 4°C, elution with biotin; Rluc activity as binding fold over Rluc-only control
T3 sequence: T1 sequence

HA-tagged p65 (from UniProt Q04206 1-551)
binding (TAP-tagged cGAS): no binding
binding [1]: binds
binding [2]: binds

Rluc fusion of IKK-γ (from UniProt Q9Y6K9 1-419)
binding [3]: no binding

Rluc fusion of β-TrCP (β-transducin repeat containing protein) (from UniProt Q9UKB1 1-542)
binding [3]: no binding

B1: Rluc fusion of TAK-1 (protein, UniProt O43318 1-606)
chain: MSTASAASSSSSSSAGEMIEAPSQVLNFEEIDYKEIEVEEVVGRGAFGVVCKAKWRAKDVAIKQIESESERKAFIVELRQLSRVNHPNIVKLYGACLNPVCLVMEYAEGGSLYNVLHGAEPLPYYTAAHAMSWCLQCSQGVAYLHSMQPKALIHRDLKPPNLLLVAGGTVLKICDFGTACDIQTHMTNNKGSAAWMAPEVFEGSNYSEKCDVFSWGIILWEVITRRKPFDEIGGPAFRIMWAVHNGTRPPLIKNLPKPIESLMTRCWSKDPSQRPSMEEIVKIMTHLMRYFPGADEPLQYPCQYSDEGQSNSATSTGSFMDIASTNTSNKSDTNMEQVPATNDTIKRLESKLLKNQAKQQSESGRLSLGASRGSSVESLPPTSEGKRMSADMSEIEARIAATTAYSKPKRGHRKTASFGNILDVPEIVISGNGQPRRRSIQDLTVTGTEPGQVSSRSSSPSVRMITTSGPTSEKPTRSHPWTPDDSTDTNGSDNSIPMAYLTLDHQLQPLAPCPNSKESMAVFEQHCKMAQEYMKVQTEIALLLQRKQELVAELDQDEKDQQNTSRLVQEHKKLLDENKSLSTYYQQCKKQLEVIRSQQQKRQGTS
binding [3]: no binding

B2: Rluc fusion of TAB-2 (protein, UniProt Q9NYJ8 1-693)
chain: MAQGSHQIDFQVLHDLRQKFPEVPEVVVSRCMLQNNNNLDACCAVLSQESTRYLYGEGDLNFSDDSGISGLRNHMTSLNLDLQSQNIYHHGREGSRMNGSRTLTHSISDGQLQGGQSNSELFQQEPQTAPAQVPQGFNVFGMSSSSGASNSAPHLGFHLGSKGTSSLSQQTPRFNPIMVTLAPNIQTGRNTPTSLHIHGVPPPVLNSPQGNSIYIRPYITTPGGTTRQTQQHSGWVSQFNPMNPQQVYQPSQPGPWTTCPASNPLSHTSSQQPNQQGHQTSHVYMPISSPTTSQPPTIHSSGSSQSSAHSQYNIQNISTGPRKNQIEIKLEPPQRNNSSKLRSSGPRTSSTSSSVNSQTLNRNQPTVYIAASPPNTDELMSRSQPKVYISANAATGDEQVMRNQPTLFISTNSGASAASRNMSGQVSMGPAFIHHHPPKSRAIGNNSATSPRVVVTQPNTKYTFKITVSPNKPPAVSPGVVSPTFELTNLLNHPDHYVETENIQHLTDPTLAHVDRISETRKLSMGSDDAAYTQALLVHQKARMERLQRELEIQKKKLDKLKSEVNEMENNLTRRRLKRSNSISQIPSLEEMQQLRSCNRQLQIDIDCLTKEIDLFQARGPHFNPSAIHNFYDNIGFVGPVPPKPKDQRSIIKTPKTQDTEDDEGAQWNCTACTFLNHPALIRCEQCEMPRHF
binding [3]: no binding

B3: Rluc fusion of TAB-3 (protein, UniProt Q8N5C8 1-712)
chain: MAQSSPQLDIQVLHDLRQRFPEIPEGVVSQCMLQNNNNLEACCRALSQESSKYLYMEYHSPDDNRMNRNRLLHINLGIHSPSSYHPGDGAQLNGGRTLVHSSSDGHIDPQHAAGKQLICLVQEPHSAPAVVAATPNYNPFFMNEQNRSAATPPSQPPQQPSSMQTGMNPSAMQGPSPPPPPPSYMHIPRYSTNPITVTVSQNLPSGQTVPRALQILPQIPSNLYGSPGSIYIRQTSQSSSGRQTPQSTPWQSSPQGPVPHYSQRPLPVYPHQQNYQPSQYSPKQQQIPQSAYHSPPPSQCPSPFSSPQHQVQPSQLGHIFMPPSPSTTPPHPYQQGPPSYQKQGSHSVAYLPYTASSLSKGSMKKIEITVEPSQRPGTAINRSPSPISNQPSPRNQHSLYTATTPPSSSPSRGISSQPKPPFSVNPVYITYTQPTGPSCTPSPSPRVIPNPTTVFKITVGRATTENLLNLVDQEERSAAPEPIQPISVIPGSGGEKGSHKYQRSSSSGSDDYAYTQALLLHQRARMERLAKQLKLEKEELERLKSEVNGMEHDLMQRRLRRVSCTTAIPTPEEMTRLRSMNRQLQINVDCTLKEVDLLQSRGNFDPKAMNNFYDNIEPGPVVPPKPSKKDSSDPCTIERKARRISVTSKVQADIHDTQAAAADEHRTGSTQSPRTQPRDEDYEGAPWNCDSCTFLNHPALNRCEQCEMPRYT
binding [3]: no binding

B4: Rluc fusion of IKK-β (protein, UniProt O14920 1-756)
chain: MSWSPSLTTQTCGAWEMKERLGTGGFGNVIRWHNQETGEQIAIKQCRQELSPRNRERWCLEIQIMRRLTHPNVVAARDVPEGMQNLAPNDLPLLAMEYCQGGDLRKYLNQFENCCGLREGAILTLLSDIASALRYLHENRIIHRDLKPENIVLQQGEQRLIHKIIDLGYAKELDQGSLCTSFVGTLQYLAPELLEQQKYTVTVDYWSFGTLAFECITGFRPFLPNWQPVQWHSKVRQKSEVDIVVSEDLNGTVKFSSSLPYPNNLNSVLAERLEKWLQLMLMWHPRQRGTDPTYGPNGCFKALDDILNLKLVHILNMVTGTIHTYPVTEDESLQSLKARIQQDTGIPEEDQELLQEAGLALIPDKPATQCISDGKLNEGHTLDMDLVFLFDNSKITYETQISPRPQPESVSCILQEPKRNLAFFQLRKVWGQVWHSIQTLKEDCNRLQQGQRAAMMNLLRNNSCLSKMKNSMASMSQQLKAKLDFFKTSIQIDLEKYSEQTEFGITSDKLLLAWREMEQAVELCGRENEVKLLVERMMALQTDIVDLQRSPMGRKQGGTLDDLEEQARELYRRLREKPRDQRTEGDSQEMVRLLLQAIQSFEKKVRVIYTQLSKTVVCKQKALELLPKVEEVVSLMNEDEKTVVRLQEKRQKELWNLLKIACSKVRGPVSGSPDSMNASRLSQPGQLMSQPSTASNSLPEPAKKSEELVAEAHNLCTLLENAIQDTVREQDQSFTALDWSWLQTEEEEHSCLEQAS
binding [3]: no binding

From article PMC6985365
